Data published in the supplement of paper PMC11006884.
The entries are a selection whose mix differs from that of the whole data set.

Amino acid sequences for entries named in this document (tags omitted). A change or cut given only in a name is not applied to a line headed by its entry.
UniProt Q9UIV1, whole entry: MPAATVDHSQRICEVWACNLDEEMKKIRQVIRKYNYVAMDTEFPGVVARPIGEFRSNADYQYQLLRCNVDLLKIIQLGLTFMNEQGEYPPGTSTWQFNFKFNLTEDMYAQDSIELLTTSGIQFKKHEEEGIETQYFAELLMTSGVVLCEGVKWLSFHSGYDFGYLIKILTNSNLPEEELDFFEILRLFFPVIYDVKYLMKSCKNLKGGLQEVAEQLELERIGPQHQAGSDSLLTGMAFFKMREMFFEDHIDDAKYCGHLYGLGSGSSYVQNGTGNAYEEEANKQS
UniProt Q9UJC3, whole entry: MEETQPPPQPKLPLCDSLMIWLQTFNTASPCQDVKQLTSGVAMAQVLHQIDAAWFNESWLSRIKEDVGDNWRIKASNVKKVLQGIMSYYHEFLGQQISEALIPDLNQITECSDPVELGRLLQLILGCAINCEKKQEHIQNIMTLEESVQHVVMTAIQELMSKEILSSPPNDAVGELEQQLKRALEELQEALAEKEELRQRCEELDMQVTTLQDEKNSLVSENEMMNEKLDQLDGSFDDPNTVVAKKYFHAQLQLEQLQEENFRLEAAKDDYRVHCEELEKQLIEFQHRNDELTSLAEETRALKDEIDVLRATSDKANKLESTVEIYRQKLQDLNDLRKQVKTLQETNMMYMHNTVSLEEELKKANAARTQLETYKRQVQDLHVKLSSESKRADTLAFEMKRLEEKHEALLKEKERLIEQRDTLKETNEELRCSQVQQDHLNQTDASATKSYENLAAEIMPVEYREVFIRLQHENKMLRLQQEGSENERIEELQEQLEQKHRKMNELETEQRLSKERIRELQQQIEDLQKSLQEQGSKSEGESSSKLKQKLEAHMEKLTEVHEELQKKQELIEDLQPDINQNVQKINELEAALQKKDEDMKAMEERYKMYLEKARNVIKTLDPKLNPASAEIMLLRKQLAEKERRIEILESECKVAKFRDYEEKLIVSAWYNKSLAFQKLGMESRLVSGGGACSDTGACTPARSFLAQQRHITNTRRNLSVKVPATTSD
UniProt Q9UHR5: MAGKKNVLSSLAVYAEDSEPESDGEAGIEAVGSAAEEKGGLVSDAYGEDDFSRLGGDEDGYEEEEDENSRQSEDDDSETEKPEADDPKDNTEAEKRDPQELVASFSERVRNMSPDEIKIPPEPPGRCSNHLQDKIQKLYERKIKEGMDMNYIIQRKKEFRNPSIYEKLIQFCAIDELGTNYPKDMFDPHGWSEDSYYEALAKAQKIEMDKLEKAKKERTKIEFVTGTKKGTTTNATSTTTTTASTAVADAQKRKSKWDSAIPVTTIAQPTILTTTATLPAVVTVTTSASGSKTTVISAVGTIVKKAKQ
UniProt Q9Y3Z3: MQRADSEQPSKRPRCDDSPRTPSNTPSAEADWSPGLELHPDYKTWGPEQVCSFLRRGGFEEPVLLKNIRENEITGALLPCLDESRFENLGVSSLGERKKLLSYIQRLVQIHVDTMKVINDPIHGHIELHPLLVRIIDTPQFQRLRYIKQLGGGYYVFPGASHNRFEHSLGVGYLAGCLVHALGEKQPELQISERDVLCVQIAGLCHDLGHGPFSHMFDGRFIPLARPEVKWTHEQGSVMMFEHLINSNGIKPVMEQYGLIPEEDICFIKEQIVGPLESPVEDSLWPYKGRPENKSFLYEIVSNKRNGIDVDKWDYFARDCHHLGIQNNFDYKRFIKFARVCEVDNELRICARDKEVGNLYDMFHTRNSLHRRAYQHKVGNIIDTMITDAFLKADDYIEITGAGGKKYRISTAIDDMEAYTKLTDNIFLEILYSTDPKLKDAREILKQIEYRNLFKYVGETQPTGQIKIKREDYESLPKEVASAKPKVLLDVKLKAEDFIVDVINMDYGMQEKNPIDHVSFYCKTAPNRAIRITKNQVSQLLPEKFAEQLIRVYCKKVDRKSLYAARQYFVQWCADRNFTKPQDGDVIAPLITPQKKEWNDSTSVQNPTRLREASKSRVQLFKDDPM
UniProt Q9Y2D5: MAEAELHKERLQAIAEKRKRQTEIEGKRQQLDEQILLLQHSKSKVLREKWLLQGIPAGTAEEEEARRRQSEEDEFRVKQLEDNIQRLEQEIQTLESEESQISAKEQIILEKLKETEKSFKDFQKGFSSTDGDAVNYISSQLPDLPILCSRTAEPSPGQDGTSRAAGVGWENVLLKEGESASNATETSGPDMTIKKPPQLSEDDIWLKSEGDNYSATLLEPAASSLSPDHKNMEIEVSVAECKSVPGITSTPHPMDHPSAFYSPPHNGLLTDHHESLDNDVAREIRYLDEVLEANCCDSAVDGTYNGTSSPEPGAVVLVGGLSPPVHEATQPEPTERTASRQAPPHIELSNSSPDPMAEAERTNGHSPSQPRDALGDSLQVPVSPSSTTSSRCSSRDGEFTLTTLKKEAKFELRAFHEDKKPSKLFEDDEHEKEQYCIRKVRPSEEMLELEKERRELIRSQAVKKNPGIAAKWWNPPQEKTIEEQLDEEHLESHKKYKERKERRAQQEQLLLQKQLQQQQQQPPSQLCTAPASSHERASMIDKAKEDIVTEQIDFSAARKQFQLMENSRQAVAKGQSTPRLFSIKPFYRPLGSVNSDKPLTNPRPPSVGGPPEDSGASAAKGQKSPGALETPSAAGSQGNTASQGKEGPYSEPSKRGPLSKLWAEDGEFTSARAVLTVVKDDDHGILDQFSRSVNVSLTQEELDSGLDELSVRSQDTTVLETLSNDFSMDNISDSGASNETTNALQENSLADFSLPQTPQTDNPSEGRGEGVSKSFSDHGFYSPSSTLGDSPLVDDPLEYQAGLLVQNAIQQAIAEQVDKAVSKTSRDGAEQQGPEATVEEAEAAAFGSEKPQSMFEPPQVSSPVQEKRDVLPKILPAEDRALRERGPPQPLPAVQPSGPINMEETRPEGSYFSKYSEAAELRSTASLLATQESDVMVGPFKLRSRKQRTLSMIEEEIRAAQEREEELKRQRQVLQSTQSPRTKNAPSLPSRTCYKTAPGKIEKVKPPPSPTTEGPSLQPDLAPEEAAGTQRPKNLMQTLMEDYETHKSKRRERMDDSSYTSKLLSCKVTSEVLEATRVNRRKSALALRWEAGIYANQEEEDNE
UniProt Q9UHJ6: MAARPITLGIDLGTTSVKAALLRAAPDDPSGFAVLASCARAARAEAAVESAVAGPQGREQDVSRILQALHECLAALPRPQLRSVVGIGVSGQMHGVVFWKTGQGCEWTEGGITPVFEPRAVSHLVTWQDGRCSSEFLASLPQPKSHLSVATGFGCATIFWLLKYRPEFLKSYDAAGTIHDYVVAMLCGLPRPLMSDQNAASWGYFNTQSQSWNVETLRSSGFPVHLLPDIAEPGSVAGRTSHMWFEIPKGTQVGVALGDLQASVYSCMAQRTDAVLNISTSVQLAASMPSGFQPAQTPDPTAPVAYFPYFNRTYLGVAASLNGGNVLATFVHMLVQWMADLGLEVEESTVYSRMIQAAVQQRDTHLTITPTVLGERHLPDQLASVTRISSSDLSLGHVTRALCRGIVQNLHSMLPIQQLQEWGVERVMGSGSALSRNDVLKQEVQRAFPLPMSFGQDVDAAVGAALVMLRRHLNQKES
UniProt Q9UL46, whole entry: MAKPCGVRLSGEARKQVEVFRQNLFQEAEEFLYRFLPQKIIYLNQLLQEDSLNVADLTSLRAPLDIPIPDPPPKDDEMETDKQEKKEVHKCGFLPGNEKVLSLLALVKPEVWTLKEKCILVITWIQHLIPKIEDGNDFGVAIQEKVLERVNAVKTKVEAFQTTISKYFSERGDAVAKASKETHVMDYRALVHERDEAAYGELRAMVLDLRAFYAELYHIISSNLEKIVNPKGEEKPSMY
UniProt Q9Y3P9: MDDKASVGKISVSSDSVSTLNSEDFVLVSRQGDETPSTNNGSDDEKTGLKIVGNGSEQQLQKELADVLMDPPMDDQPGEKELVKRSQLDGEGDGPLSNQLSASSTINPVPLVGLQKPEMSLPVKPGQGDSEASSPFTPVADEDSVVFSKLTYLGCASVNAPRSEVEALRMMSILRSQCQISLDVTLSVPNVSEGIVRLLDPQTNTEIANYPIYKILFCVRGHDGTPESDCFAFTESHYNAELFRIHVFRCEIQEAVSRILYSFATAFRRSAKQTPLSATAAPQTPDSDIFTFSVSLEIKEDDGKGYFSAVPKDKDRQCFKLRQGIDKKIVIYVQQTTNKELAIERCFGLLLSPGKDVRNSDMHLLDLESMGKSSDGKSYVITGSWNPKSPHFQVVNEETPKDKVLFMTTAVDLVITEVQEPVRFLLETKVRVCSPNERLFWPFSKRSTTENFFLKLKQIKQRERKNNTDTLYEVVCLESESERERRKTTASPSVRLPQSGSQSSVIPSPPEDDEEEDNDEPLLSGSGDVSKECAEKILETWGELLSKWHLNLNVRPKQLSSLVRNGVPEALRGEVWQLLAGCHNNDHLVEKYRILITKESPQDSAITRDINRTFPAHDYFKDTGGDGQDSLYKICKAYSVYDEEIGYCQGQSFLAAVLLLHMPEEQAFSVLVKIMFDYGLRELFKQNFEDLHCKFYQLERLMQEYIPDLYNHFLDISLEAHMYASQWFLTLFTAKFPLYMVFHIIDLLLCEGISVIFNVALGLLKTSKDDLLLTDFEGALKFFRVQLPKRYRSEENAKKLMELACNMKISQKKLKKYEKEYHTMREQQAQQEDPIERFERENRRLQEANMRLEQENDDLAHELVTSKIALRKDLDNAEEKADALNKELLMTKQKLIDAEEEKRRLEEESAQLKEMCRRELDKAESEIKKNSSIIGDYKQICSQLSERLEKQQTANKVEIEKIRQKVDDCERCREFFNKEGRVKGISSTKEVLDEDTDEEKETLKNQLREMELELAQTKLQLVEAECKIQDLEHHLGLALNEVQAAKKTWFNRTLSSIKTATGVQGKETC
UniProt Q9UPN9: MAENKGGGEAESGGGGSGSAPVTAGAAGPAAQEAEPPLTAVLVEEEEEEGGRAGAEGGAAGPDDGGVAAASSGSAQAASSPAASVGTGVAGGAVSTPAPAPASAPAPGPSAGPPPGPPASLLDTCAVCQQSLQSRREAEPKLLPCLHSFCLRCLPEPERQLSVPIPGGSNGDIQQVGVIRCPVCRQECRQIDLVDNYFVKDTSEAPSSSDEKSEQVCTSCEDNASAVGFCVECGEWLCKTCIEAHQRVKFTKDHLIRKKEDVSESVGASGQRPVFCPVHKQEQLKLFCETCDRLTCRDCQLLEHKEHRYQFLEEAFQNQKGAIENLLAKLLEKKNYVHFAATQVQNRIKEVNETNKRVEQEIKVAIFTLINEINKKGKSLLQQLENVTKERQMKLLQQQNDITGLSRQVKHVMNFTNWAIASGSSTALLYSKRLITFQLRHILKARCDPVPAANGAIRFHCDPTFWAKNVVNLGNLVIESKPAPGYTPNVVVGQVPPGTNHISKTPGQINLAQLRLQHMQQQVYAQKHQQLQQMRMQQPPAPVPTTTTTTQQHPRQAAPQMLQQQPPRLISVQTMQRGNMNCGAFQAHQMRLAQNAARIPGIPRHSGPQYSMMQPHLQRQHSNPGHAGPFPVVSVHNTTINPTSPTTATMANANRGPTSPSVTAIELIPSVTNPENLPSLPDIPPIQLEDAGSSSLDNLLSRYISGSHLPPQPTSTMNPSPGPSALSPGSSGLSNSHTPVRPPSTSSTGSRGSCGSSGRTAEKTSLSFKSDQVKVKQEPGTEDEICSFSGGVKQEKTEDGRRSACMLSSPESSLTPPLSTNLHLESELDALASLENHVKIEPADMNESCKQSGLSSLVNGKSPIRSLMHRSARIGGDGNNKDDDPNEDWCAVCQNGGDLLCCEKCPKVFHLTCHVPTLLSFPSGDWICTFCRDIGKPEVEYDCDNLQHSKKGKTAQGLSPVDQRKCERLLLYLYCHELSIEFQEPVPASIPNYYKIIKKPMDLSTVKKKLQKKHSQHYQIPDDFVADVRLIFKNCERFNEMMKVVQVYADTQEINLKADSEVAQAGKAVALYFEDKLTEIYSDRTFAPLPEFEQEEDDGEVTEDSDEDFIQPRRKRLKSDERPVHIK
UniProt Q9Y305: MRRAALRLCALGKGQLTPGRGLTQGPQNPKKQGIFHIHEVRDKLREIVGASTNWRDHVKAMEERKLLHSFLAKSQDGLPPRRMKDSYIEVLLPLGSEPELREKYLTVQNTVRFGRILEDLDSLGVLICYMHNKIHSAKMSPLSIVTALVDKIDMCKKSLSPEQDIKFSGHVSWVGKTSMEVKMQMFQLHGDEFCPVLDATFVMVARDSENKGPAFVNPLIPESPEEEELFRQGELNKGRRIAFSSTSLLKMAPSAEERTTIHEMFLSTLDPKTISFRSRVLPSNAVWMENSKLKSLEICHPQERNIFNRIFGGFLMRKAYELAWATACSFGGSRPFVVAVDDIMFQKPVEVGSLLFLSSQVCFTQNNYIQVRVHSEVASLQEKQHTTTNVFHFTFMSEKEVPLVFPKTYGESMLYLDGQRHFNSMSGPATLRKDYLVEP
UniProt Q9Y324: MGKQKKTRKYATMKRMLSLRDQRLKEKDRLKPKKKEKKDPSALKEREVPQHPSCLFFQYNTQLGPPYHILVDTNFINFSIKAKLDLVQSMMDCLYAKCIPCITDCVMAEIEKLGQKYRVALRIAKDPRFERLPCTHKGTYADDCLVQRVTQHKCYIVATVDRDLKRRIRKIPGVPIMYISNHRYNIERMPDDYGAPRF

These targets were tested with COC(=O)C#Cc1ccccc1 [methyl 3-phenylpropiolate] (assay: log2 ratio of iodoacetamide-alkyne labeling of the cysteine site, DMSO over compound (competition); higher = stronger covalent engagement of the cysteine by the compound, active = 1 or more). Details: 500 µM; treatment time 1 h; system: HEK293T cell lysate.
How it was run: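 For each cysteine, the log2 competition ratio is mean control-channel reporter intensity over mean compound-channel reporter intensity. HEK293T lysate (2 mg/mL) was exposed to vehicle or electrophile (500 µM, 1 h, ambient temperature), labelled with iodoacetamide alkyne (1 h), clicked to sCIP-TMT reagents, digested overnight with trypsin at 37 °C, streptavidin-enriched and analysed by Orbitrap Eclipse LC-MS/MS with FAIMS and FragPipe. Cysteines quantified in only one of three replicates, each with duplicate channels, were excluded.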

Row | Target | log2 ratio of iodoacetamide-alkyne labeling
1 | MCTS1 C14 (UniProt Q9ULC4) | inactive: 0.00281
2 | CNOT7 C18 (UniProt Q9UIV1) | inactive: 0.331
3 | ANAPC5 C86 (UniProt Q9UJX4) | inactive: 0.467
4 | HOOK1 C432 (UniProt Q9UJC3) | inactive: 0.385
5 | SAP30BP C127 (UniProt Q9UHR5) | active: 1.3
6 | RWDD3 C17 (UniProt Q9Y3V2) | inactive: -0.322
7 | SNX12 C141 (UniProt Q9UMY4) | inactive: 0.351
8 | SAMHD1 C80 (UniProt Q9Y3Z3) | inactive: 0.175
9 | UniProt Q9Y2K2_C333 | inactive: 0.197
10 | UniProt Q9Y2D5_C296 | inactive: 0.394
11 | SHPK C105 (UniProt Q9UHJ6) | inactive: 0.353
12 | TRMT6 C492 (UniProt Q9UJA5) | inactive: 0.642
13 | MINPP1 C475 (UniProt Q9UNW1) | inactive: 0.23
14 | UniProt Q9UHD8_C248 | inactive: 0.218
15 | PSME2 C91 (UniProt Q9UL46) | inactive: 0.468
16 | CPSF3 C223 (UniProt Q9UKF6) | inactive: -0.103
17 | RABGAP1 C1026 (UniProt Q9Y3P9) | inactive: -0.252
18 | TRIM33 C145 (UniProt Q9UPN9) | inactive: 0.21
19 | ACOT9 C155 (UniProt Q9Y305) | inactive: -0.184
20 | HERC5 C468 (UniProt Q9UII4) | inactive: 0.344
21 | FCF1 C154 (UniProt Q9Y324) | inactive: 0.167
22 | ABT1 C37 (UniProt Q9ULW3) | inactive: 0.596

Reformatted: results already given.
UniProt Q9UHD8_C248
  log2 ratio of iodoacetamide-alkyne labeling: inactive: 0.218
PSME2 C91 (UniProt Q9UL46)
  log2 ratio of iodoacetamide-alkyne labeling: inactive: 0.468
